Measurements from US20110280866A1.
These are yes or no findings as the source states them, for the method shown. Some binding calls cover weakened binding; strength is not graded here. Tags and fused reporters may be left off the sequences shown.

Target: T1, fusion protein between GST and CD-160 (Homo sapiens (Human)) (UniProt O95971)
T1 sequence: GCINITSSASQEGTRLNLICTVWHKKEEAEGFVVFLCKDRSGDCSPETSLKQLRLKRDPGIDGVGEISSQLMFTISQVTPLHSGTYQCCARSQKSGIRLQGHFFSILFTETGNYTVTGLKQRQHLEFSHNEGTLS
Experiment: indirect immunofluorescence staining and flow cytometry, screening of hybridoma supernatants

binding: binds
B1: mouse CD160 antibody (anti-CD160 antibody having anti-angiogenesis properties) (antibody, V domains shown)
VH: QVHLQQSGAELARPGASVKLSCKASGYTFTDYWMQWIKQRPGQGLEWIGSIYPGDDDARYTQKFRGKATLTADKSSSTAYMQLSSLASEDSAVYYCARRGIAAVVGGFDYWGQGTTLTVSS
VL: DIVLTQSPATLSVTPGNSVSLSCRASQSISNHLHWYQQKSHESPRLLIKYASQSISGIPSRFSGSGSGTDFTLSINSVETEDFGMYFCQQSNSWPLTFGAGTKLELKR
